# Results as given in article PMC10359004.
# Protein sequences, listed by entry. Tags and fused reporters are not part of them. Lines headed by an entry give the natural chain unless they say otherwise; changes in a name come on top.
# UniProt Q8IPI4: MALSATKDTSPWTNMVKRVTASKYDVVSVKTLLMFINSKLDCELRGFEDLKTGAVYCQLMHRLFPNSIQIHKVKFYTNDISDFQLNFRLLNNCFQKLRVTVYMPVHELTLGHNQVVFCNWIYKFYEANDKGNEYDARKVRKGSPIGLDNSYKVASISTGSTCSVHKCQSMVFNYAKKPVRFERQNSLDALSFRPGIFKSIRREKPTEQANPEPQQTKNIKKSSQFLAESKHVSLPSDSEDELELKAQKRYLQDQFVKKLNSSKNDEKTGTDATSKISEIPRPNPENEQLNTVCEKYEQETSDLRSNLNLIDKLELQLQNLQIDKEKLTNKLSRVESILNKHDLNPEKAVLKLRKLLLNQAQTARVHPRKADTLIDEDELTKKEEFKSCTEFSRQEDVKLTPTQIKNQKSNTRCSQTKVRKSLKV
# No constants are given. Whether binding was seen depends on the method and setting. Binding seen in cells or lysates may run through a third protein. These calls come from enrichment with a bait or labelling near it, and not all partners need be listed.
# Biological target: Mst27D-EGFP (expressed in testes from the transgene g-Mst27D-EGFP) (D. melanogaster) (UniProt Q8IPI4)
# Assay: affinity purification with mass spectrometry; Mst27D-EGFP purified with anti-GFP beads (uMACS) from extracts of about 9000 testes of late larvae and early pupae, four replicates; lysis buffer 20 mM Tris-HCl pH 7.5, 150 mM NaCl, 2 mM MgCl2, 0.1% NP-40, 5% glycerol, Benzonase; 4°C; controls EGFP, MNM-EGFP, SNM-EGFP, UNO-EGFP
binder,measurement,value
"RanGAP (endogenous, testis) (protein, UniProt Q9VIW3 1-596) MSTFNFASMAAQLGQEQGISFENKVLSWNTAADVQDVVDALNKQTTVHYLNLDGNTLGVEAAKAIGEGLKRHPEFRKALWKNMFTGRLISEIPEALKHLGAALIVAGAKLTVLDLSDNALGPNGMRGLEELLRSPVCYSLQELLLCNCGLGPEGGSMLSRALIDLHANANKAGFPLQLRVFIGSRNRLEDAGATEMATAFQTLKTFEEIVLEQNSIYIEGVEALAESFKHNPHLRVLNMNDNTLKSEGAEKIAEALPFLPLLREMSFGDCLIKTNGAYHFGEALERGNERLEVIDLGFNEINSDGGLVLVNAMGNKPKLRILNLDGNSFGEEGSEKIISEMSKLPTAAALQPFQHQEEEDLEDEYQADKQDADYEEEEEVHEHANDTTEEADEDSEGDEDDEEDEGDEEYSNVAEETAYVTTNAYTTKLFNDTTNSMASETFAVANKTISQKCTPEKFCLSQKPCSQEDFDSLDMDNKLEALQSIVNQFTGDNHLLLLVFTTLKCAHLSQSSKAALDLAVSLYQATFDYAIKTKQETRVLNYVLMQLRLLPCKEVFHSDYDVKNCRFALREALKQPTFANDNIKNSFKTFLEGAES",binding,binds
